Patent US20170029507A1 (IMAGINAB, published 2017)
These are yes or no findings as the source states them, for the method shown. Some binding calls cover weakened binding; strength is not graded here.

Chains of the proteins cited; added tags and fusions are not shown. Lines headed by an entry give the natural chain unless they say otherwise; changes in a name come on top.
UniProt P01732: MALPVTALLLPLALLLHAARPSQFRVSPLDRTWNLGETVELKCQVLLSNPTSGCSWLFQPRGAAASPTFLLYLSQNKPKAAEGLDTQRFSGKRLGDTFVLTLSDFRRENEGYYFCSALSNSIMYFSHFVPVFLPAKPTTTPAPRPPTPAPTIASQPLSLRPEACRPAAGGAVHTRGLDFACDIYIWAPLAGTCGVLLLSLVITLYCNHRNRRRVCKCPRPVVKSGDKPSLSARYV

Experiments:
[1] = target: purified recombinant human CD8 protein (human) (UniProt P01732); test: SPR, soluble CD8; SPR analysis, soluble CD8; binds with several-fold loss in affinity vs chimeric minibody and parental OKT8
[2] = target: cellular human CD8 (human) (UniProt P01732); test: flow cytometry on CD8+ cells, transfection supernatants, anti-human IgG Fc-APC
[3] = target: cellular human CD8 (human) (UniProt P01732); test: flow cytometry, CD8+ cells, transfection supernatant at several dilutions, APC anti-human IgG (Fc-specific)

Row | binding [1] | binding [2] | binding [3] | Binder
1 | binds | binds | binds | Humanized IAb_Mb1_CD8 (protein) DVQITQSPSSLSASVGDRVTITCRTSRSISQYLAWYQQKPGKVPKLLIYSGSTLQSGVPSRFSGSGSGTDFTLTISSLQPEDVATYYCQQHNENPLTFGGGTKVEIKGSTSGGGSGGGSGGGGSSQVQLVQSGAEVKKPGATVKISCKVSGFNIKDTYIHWVQQAPGKGLEWMGRIDPANDNTLYASKFQGRVTITADTSTDTAYMELSSLRSEDTAVYYCARGYGYYVFDHWGQGTLVTVSSEPKSCDKTHTCPPCGGGSSGGGSGGQPREPQVYTLPPSRDELTKNQVSLTCLVKGFYPSDIAVEWESNGQPENNYKTTPPVLDSDGSFFLYSKLTVDKSRWQQGNVFSCSVMHEALHNHYTQKSLSLSPGK
2 | binds | binds | binds | Humanized IAb_Mb2_CD8 (protein) QVQLVQSGAEVKKPGATVKISCKVSGFNIKDTYIHWVQQAPGKGLEWMGRIDPANDNTLYASKFQGRVTITADTSTDTAYMELSSLRSEDTAVYYCARGYGYYVFDHWGQGTLVTVSSGSTSGGGSGGGSGGGGSSDVQITQSPSSLSASVGDRVTITCRTSRSISQYLAWYQQKPGKVPKLLIYSGSTLQSGVPSRFSGSGSGTDFTLTISSLQPEDVATYYCQQHNENPLTFGGGTKVEIKEPKSCDKTHTCPPCGGGSSGGGSGGQPREPQVYTLPPSRDELTKNQVSLTCLVKGFYPSDIAVEWESNGQPENNYKTTPPVLDSDGSFFLYSKLTVDKSRWQQGNVFSCSVMHEALHNHYTQKSLSLSPGK
